# Structures can show the parent of a compound that is named as a salt. At least one structure is not confirmed: it was looked up by name or label, or the drawing left a doubt.
# System: multi-drug resistant Lewis lung cancer
# Experiment: Tumor weight and inhibition rate, transplanted multi-drug resistant Lewis lung cancer
# Type: in vivo
# Conditions: multidrug-resistant Lewis lung cancer mice, positive drug groups
# Experimental: Lewis lung cancer cell lines were induced by the increased gradient concentration of dacarbazine and gemcitabine, and established by clone screening, then cultured without drug before the experiment.
# After the drug was removed from the drug-resistant cell lines, the cell concentration was adjusted to 1×10^7/ml with the culture medium. 1×10^7/ml of cells were subcutaneously injected into the right armpit of mice, 0.1 ml per mouse.
# After the average diameter of tumor reached […], the mice were randomly divided into test drug group 1, test drug group 2, test drug group 3, test drug group 4, test drug group 5, test drug group 6, positive drug group, and negative group, respectively.
# Test drug group: the test drug group was first intraperitoneally injected, once a day, 30 mg/kg/time, for 5 consecutive days; administration was stopped, and the positive drug was given by intraperitoneal injection on the next day; wherein the positive drug dacarbazine was administrated once every other day, 60 mg/kg/time; wherein the positive drug gemcitabine was given once every other day, 300 mg/kg/time.
# Positive drug group: positive drug dacarbazine was given once every other day, 60 mg/kg/time; positive drug gemcitabine was given once every other day, 300 mg/kg/time.
# Negative group: normal saline was intraperitoneally injected, once a day, for 15 consecutive days. […]
structure (smiles),measurement,value
"CN(C)/N=N/c1[nH]cnc1C(N)=O [Dacarbazine, 5-(3,3-dimethyl-1-triazenyl)-4-carboxamideimidazolium citrate, reference compound]",inhibitory effect on the tumor (in words),don't have obvious inhibitory effect

# From patent publication US20210085630A1, “PHARMACEUTICAL COMPOSITION AND USE THEREOF IN PREPARING DRUG FOR TREATING TUMOR MULTI-DRUG RESISTANCE” (SICHUAN JIUZHANG BIOLOGICAL SCIENCE AND TECHNOLOGY CO., LTD., priority 2018, published 2021)
